Assay results as given in patent US20250283871A1, “COMPOSITIONS AND METHODS FOR MODULATING THE INTERACTION BETWEEN SS18-SSX FUSION ONCOPROTEIN AND NUCLEOSOMES” (Dana-Farber Cancer Institute, Inc., priority 2020, published 2025).

System: BAF complex subunits and histone proteins
Assay: Mass spectrometry proteomics of purified HA-SS18 WT and HA-SS18-SSX1 complexes (Tables 5A-5E)
Parameters: species or system human
Conditions: HEK-293T
[1] = HA-SS18SSX1_CHR_peptides: protein identified in the HA-SS18-SSX1 purification from solubilized chromatin (CHR)
[2] = HA-SS18SSX1 purification, NE (soluble nuclear extract) fraction, peptides per identified protein
[3] = HA-SS18WT_CHR_peptides: HA-SS18 WT purification from nuclease-treated solubilized chromatin (CHR), label = protein identified
[4] = HA-SS18WT_NE_peptides: HA-SS18 WT complexes purified from nuclear extract (NE), label = protein identified (Gene Symbol)
[5] = HA-SS18WT_CHR_peptides: protein identified in HA-SS18 WT BAF complex purification from nuclease-treated solubilized chromatin (CHR)

| Molecule | Total (total peptides) [1] | Unique (unique peptides) [1] | Total (total peptides) [2] | Unique (unique peptides) [2] | Total (peptides) [3] | Unique (peptides) [3] | Total (peptides) [4] | Unique (peptides) [4] | Total (total peptides) [5] | Unique (unique peptides) [5] |
| --- | --- | --- | --- | --- | --- | --- | --- | --- | --- | --- |
| HNRNPD (protein, UniProt Q14103 2-355, looked up) Heterogeneous nuclear …: SEEQFGGDGAAAAATAAVGGSAGEQEGAMVAATQGAAAAAGSGAGTGGGTASGGTEGGSAESEGAKIDASKNEEDEGHSNSSPRHSEAATAQREEWKMFIGGLSWDTTKKDLKDYFSKFGEVVDCTLKLDPITGRSRGFGFVLFKESESVDKVMDQKEHKLNGKVIDPKRAKAMKTKEPVKKIFVGGLSPDTPEEKIREYFGGFGEVESIELPMDNKTNKRRGFCFITFKEEEPVKKIMEKKYHNVGLSKCEIKVAMSKEQYQQQQQWGSRGGFAGRARGRGGGPSQNWNQGYSNYWNQGYGNYGYNSQGYGGYGGYDYTGYNNYYGYGDYSNQQSGYGKVSRRGGHQNSYKPY | 5 | 5 | 3 | 3 | 3 | 2 | 3 | 3 |  |  |
| TRAP1 (protein, UniProt Q12931 60-704, looked up) Heat shock protein 75 kDa, …: STQTAEDKEEPLHSIISSTESVQGSTSKHEFQAETKKLLDIVARSLYSEKEVFIRELISNASDALEKLRHKLVSDGQALPEMEIHLQTNAEKGTITIQDTGIGMTQEELVSNLGTIARSGSKAFLDALQNQAEASSKIIGQFGVGFYSAFMVADRVEVYSRSAAPGSLGYQWLSDGSGVFEIAEASGVRTGTKIIIHLKSDCKEFSSEARVRDVVTKYSNFVSFPLYLNGRRMNTLQAIWMMDPKDVREWQHEEFYRYVAQAHDKPRYTLHYKTDAPLNIRSIFYVPDMKPSMFDVSRELGSSVALYSRKVLIQTKATDILPKWLRFIRGVVDSEDIPLNLSRELLQESALIRKLRDVLQQRLIKFFIDQSKKDAEKYAKFFEDYGLFMREGIVTATEQEVKEDIAKLLRYESSALPSGQLTSLSEYASRMRAGTRNIYYLCAPNRHLAEHSPYYEAMKKKDTEVLFCFEQFDELTLLHLREFDKKKLISVETDIVVDHYKEEKFEDRSPAAECLSEKETEELMAWMRNVLGSRVTNVKVTLRLDTHPAMVTVLEMGAARHFLRMQQLAKTQEERAQLLQPTLEINPRHALIKKLNQLRASEPGLAQLLVDQIYENAMIAAGLVDDPRAMVGRLNELLVKALERH | 5 | 5 | 6 | 6 | 4 | 4 | 3 | 3 |  |  |
| PRR14 (protein, UniProt Q9BWN1 1-585, looked up) Proline-rich protein 14: MDLPGDSSPPGQPRLCRQPLTRALWGARSPKRPRLQLPGAPSPLEKASRRVLAVVLEDVMAVHMVPVVPSKQTSIPQHHSYHQDPVHRQPPASPPRQAGWSSQARPPDPLCLCREPLSRIHRTSSTLRRRSRTTPGPEEGPSQKVDRAPQPTLVVMLEDIASPRPPAEGFIDETPNFIIPAQRAEPMRIVRQPTPPPGDLEPPFQPSALPADPLESPPTAPDPALELPSTPPPSSLLRPRLSPWGLAPLFRSVRSKLESFADIFLTPNKTPQPPPPSPPMKLELKIAISEAEQSGAAEGTASVSPRPPIRQWRTQDHNTPALLPKPSLGRSYSCPDLGPPGPGTCTWPPAPPQPSRPRPRRHTVGGGEMARAPPPPRPCLRKEVFPLGGVGASPSLTTSCSSTASTSFSEPAEPRLGSTKGKEPRASKDQVLSEPETKTMGKVSRFRIRRTPARPQLNLTPMGLPRPIRLNKKEFSLEEIYTNKNYQSPTTRRTFETIFEEPRERNGTLIFTSSRKLRRAVEFRDSSLPRSRRPSRGVRAAGGRTVPPNVAPSPDVGPLLQQRLEELDALLLEEETVDREQPHWT | 5 | 5 |  |  |  |  |  |  | 1 | 1 |
| LBR (protein, UniProt Q14739 1-615, looked up) Delta(14)-sterol reductase LBR: MPSRKFADGEVVRGRWPGSSLYYEVEILSHDSTSQLYTVKYKDGTELELKENDIKPLTSFRQRKGGSTSSSPSRRRGSRSRSRSRSPGRPPKSARRSASASHQADIKEARREVEVKLTPLILKPFGNSISRYNGEPEHIERNDAPHKNTQEKFSLSQESSYIATQYSLRPRREEVKLKEIDSKEEKYVAKELAVRTFEVTPIRAKDLEFGGVPGVFLIMFGLPVFLFLLLLMCKQKDPSLLNFPPPLPALYELWETRVFGVYLLWFLIQVLFYLLPIGKVVEGTPLIDGRRLKYRLNGFYAFILTSAVIGTSLFQGVEFHYVYSHFLQFALAATVFCVVLSVYLYMRSLKAPRNDLSPASSGNAVYDFFIGRELNPRIGTFDLKYFCELRPGLIGWVVINLVMLLAEMKIQDRAVPSLAMILVNSFQLLYVVDALWNEEALLTTMDIIHDGFGFMLAFGDLVWVPFIYSFQAFYLVSHPNEVSWPMASLIIVLKLCGYVIFRGANSQKNAFRKNPSDPKLAHLKTIHTSTGKNLLVSGWWGFVRHPNYLGDLIMALAWSLPCGFNHILPYFYIIYFTMLLVHREARDEYHCKKKYGVAWEKYCQRVPYRIFPYIY | 5 | 5 | 5 | 4 |  |  | 7 | 6 |  |  |
| BYSL (protein, UniProt Q13895 1-437, looked up) Bystin: MPKFKAARGVGGQEKHAPLADQILAGNAVRAGVREKRRGRGTGEAEEEYVGPRLSRRILQQARQQQEELEAEHGTGDKPAAPRERTTRLGPRMPQDGSDDEDEEWPTLEKAATMTAAGHHAEVVVDPEDERAIEMFMNKNPPARRTLADIIMEKLTEKQTEVETVMSEVSGFPMPQLDPRVLEVYRGVREVLSKYRSGKLPKAFKIIPALSNWEQILYVTEPEAWTAAAMYQATRIFASNLKERMAQRFYNLVLLPRVRDDVAEYKRLNFHLYMALKKALFKPGAWFKGILIPLCESGTCTLREAIIVGSIITKCSIPVLHSSAAMLKIAEMEYSGANSIFLRLLLDKKYALPYRVLDALVFHFLGFRTEKRELPVLWHQCLLTLVQRYKADLATDQKEALLELLRLQPHPQLSPEIRRELQSAVPRDVEDVPITVE | 5 | 5 |  |  |  |  |  |  | 2 | 2 |
| RRP36 (protein, UniProt Q96EU6 1-259, looked up) Ribosomal RNA processing …: MPGANYRAGAGAGAGARRPRGARDREEDGGGLEPAAVARDLLRGTSNMSFEELLELQSQVGTKTYKQLVAGNSPKKQASRPPIQNACVADKHRPLEMSAKIRVPFLRQVVPISKKVARDPRFDDLSGEYNPEVFDKTYQFLNDIRAKEKELVKKQLKKHLSGEEHEKLQQLLQRMEQQEMAQQERKQQQELHLALKQERRAQAQQGHRPYFLKKSEQRQLALAEKFKELKRSKKLENFLSRKRRRNAGKDRRHLPLSKE | 5 | 4 |  |  |  |  |  |  | 2 | 2 |
| SLC25A3 (protein, UniProt Q00325 50-362, looked up) Solute carrier family 25 …: AVEEQYSCDYGSGRFFILCGLGGIISCGTTHTALVPLDLVKCRMQVDPQKYKGIFNGFSVTLKEDGVRGLAKGWAPTFLGYSMQGLCKFGFYEVFKVLYSNMLGEENTYLWRTSLYLAASASAEFFADIALAPMEAAKVRIQTQPGYANTLRDAAPKMYKEEGLKAFYKGVAPLWMRQIPYTMMKFACFERTVEALYKFVVPKPRSECSKPEQLVVTFVAGYIAGVFCAIVSHPADSVVSVLNKEKGSSASLVLKRLGFKGVWKGLFARIIMIGTLTALQWFIYDSVKVYFRLPRPPPPEMPESLKKKLGLTQ | 5 | 3 | 22 | 10 |  |  | 24 | 13 | 2 | 2 |
